These are yes or no findings as the source states them, for the method shown. Binding seen in cells or lysates may run through a third protein. Some entries that bind do so weakly or less than the wild type.

Sequences of proteins named here, by UniProt entry; tags and fusion partners are left off.
UniProt Q91ZW3: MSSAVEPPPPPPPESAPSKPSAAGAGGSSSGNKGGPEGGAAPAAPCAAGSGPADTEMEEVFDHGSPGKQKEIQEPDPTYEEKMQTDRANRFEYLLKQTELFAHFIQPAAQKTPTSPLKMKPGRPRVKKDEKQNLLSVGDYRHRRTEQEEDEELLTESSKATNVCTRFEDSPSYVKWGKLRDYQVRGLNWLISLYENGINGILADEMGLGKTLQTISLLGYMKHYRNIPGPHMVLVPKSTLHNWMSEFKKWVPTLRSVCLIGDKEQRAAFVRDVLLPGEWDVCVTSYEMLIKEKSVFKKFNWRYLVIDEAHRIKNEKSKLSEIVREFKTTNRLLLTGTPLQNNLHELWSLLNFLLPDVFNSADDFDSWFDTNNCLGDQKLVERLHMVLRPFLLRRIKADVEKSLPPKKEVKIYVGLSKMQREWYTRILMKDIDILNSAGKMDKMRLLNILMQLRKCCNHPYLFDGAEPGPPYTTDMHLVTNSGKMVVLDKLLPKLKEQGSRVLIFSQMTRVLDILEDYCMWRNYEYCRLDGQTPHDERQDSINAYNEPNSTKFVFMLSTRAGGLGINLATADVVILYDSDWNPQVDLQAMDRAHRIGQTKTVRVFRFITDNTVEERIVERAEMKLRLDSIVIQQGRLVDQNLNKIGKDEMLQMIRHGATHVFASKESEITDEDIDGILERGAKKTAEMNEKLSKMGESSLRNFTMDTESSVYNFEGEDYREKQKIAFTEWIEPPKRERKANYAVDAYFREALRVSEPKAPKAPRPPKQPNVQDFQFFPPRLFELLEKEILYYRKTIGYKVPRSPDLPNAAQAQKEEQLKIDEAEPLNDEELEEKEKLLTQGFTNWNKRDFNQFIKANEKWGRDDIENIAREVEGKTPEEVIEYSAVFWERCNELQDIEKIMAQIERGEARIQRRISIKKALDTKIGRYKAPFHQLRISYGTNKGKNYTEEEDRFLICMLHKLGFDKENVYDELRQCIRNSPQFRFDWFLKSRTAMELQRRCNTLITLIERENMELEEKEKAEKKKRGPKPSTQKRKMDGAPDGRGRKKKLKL
UniProt O88379: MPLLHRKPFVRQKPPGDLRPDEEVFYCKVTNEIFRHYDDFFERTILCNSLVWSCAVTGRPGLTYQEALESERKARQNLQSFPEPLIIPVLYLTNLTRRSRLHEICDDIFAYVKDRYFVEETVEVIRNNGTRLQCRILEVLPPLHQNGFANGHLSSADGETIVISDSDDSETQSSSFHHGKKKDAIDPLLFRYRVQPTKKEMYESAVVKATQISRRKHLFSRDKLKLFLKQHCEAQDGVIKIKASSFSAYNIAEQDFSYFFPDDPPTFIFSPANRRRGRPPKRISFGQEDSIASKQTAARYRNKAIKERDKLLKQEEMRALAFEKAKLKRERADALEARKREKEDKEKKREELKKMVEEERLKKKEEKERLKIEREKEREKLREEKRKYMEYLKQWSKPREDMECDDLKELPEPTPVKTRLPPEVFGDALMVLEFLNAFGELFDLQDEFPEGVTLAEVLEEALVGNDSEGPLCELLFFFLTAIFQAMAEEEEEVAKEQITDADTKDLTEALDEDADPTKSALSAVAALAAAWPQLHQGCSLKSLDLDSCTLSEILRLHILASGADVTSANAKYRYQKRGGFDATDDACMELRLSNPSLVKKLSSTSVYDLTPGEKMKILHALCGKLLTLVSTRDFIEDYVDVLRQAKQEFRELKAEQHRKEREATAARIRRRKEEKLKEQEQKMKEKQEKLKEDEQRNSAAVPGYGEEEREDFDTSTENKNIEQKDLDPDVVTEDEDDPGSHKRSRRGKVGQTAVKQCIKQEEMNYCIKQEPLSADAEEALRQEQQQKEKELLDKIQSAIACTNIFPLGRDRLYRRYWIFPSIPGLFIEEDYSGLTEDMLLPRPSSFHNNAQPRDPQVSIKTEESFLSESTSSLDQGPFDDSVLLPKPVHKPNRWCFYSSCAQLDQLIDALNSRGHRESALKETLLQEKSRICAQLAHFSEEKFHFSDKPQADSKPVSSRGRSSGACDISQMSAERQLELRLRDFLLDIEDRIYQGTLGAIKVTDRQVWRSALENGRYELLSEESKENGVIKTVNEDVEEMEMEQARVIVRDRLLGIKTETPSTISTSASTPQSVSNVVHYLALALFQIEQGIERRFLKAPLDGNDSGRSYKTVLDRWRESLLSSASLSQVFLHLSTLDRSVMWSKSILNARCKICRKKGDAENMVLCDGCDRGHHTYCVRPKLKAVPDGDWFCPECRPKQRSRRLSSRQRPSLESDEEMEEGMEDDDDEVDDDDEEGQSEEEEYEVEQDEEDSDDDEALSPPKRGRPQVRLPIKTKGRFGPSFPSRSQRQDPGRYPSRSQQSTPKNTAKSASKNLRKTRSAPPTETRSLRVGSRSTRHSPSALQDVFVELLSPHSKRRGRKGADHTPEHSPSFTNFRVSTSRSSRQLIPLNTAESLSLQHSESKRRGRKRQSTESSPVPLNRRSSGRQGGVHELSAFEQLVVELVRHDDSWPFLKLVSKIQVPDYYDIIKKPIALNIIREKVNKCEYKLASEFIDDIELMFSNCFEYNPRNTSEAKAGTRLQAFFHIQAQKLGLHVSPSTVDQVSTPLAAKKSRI
UniProt Q91YE5: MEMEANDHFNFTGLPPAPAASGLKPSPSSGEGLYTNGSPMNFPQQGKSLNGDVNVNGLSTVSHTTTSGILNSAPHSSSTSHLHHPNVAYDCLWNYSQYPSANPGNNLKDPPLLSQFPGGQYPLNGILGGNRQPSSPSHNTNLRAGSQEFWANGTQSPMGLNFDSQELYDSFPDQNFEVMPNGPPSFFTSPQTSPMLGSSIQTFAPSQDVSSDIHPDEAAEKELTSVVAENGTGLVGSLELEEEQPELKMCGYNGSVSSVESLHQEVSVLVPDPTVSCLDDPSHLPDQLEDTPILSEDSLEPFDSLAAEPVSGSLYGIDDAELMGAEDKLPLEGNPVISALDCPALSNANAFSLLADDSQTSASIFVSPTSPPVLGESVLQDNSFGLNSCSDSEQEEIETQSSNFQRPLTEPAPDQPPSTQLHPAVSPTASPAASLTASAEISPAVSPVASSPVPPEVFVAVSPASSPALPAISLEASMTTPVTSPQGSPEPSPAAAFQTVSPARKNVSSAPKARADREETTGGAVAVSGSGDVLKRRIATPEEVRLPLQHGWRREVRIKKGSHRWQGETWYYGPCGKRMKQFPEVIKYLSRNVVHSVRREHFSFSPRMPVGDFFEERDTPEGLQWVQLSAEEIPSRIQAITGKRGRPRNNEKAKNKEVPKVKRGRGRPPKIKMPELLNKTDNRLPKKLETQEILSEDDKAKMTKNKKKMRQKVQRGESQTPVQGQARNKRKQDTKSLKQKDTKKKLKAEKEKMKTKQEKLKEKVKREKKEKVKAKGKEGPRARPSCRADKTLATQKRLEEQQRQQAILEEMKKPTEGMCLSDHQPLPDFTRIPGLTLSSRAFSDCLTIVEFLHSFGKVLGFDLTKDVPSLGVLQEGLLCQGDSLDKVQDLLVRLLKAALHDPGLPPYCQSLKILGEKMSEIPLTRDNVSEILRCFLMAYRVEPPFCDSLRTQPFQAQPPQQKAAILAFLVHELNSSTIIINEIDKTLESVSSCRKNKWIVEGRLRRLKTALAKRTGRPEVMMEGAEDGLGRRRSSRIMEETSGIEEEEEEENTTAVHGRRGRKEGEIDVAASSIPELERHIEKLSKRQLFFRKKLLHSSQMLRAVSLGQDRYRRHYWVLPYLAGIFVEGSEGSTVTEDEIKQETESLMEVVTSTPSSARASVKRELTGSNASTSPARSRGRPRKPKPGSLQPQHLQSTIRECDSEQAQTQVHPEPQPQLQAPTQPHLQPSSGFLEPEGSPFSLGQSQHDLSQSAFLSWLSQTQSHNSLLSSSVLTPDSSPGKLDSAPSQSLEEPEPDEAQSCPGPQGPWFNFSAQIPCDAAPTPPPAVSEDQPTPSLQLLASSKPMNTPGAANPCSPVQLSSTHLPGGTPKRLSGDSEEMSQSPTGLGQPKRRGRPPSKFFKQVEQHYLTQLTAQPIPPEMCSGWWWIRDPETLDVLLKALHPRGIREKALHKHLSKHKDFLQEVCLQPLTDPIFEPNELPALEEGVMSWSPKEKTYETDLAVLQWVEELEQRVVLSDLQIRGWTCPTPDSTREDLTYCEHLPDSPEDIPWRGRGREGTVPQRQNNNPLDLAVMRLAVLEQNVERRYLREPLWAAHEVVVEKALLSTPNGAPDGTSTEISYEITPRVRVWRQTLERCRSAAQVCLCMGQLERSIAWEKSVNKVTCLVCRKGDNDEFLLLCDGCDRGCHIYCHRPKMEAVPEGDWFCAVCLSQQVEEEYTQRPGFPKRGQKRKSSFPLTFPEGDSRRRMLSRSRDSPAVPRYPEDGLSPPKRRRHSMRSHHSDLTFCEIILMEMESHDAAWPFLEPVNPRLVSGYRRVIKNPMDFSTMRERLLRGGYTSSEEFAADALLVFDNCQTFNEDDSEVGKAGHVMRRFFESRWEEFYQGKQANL
UniProt E9Q2Z1: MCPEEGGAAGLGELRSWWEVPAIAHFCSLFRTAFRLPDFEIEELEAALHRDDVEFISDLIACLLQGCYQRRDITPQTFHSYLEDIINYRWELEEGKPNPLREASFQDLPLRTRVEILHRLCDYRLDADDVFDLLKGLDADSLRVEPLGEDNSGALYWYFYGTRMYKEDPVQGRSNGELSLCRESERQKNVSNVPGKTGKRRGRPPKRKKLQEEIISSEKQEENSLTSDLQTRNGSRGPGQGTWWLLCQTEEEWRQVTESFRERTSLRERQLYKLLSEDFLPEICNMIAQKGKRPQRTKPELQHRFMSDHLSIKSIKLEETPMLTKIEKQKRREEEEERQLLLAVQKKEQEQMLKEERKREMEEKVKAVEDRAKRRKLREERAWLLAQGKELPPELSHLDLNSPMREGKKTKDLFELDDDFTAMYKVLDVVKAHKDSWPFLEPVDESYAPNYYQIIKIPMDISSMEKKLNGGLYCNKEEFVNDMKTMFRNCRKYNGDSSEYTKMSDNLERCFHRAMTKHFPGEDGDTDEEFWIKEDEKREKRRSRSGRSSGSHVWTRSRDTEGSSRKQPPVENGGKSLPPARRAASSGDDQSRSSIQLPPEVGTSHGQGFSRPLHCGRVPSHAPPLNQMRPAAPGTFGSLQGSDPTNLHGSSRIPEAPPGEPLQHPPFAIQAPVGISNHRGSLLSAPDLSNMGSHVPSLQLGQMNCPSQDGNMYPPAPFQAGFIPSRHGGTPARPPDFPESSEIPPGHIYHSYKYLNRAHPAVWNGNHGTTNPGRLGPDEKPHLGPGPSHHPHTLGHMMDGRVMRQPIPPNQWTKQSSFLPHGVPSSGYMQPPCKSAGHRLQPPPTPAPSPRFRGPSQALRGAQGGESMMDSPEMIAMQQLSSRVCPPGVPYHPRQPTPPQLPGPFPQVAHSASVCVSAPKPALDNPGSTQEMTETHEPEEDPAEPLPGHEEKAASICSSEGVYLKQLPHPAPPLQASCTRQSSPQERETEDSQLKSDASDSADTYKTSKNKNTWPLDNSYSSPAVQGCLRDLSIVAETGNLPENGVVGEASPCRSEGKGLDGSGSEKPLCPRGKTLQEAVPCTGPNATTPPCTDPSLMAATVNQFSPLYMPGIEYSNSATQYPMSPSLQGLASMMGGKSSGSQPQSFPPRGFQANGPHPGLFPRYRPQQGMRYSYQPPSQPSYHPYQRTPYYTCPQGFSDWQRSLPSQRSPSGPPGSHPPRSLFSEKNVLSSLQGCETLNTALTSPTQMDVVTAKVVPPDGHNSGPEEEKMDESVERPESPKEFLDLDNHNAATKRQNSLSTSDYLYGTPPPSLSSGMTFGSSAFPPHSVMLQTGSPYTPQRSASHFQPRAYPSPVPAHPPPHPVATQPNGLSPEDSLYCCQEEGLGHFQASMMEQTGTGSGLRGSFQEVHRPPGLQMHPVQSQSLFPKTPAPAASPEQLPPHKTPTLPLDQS

This is an account of results in paper doi:10.1101/2023.07.25.550466.

The labels stand for the following.
B1: WSTF (Baz1b) (protein, UniProt Q9Z277 1-1479)
chain: MAPLLGRKPFPLVKPLPGEEPLFTIPHTQEAFRTREEYEARLERYSERIWTCKSTGSSQLTHKEAWEEEQEVAELLKEEFPNWYEKLVLEMVHHNTASLEKLVDSAWLEIMTKYAVGEECDFEVGKEKMLKVKIVKIHPLEKVDEEAVEKKSDGACDSPSSDKENSSQMAQDLQKKETVVKEDEGRRESINDRARRSPRKLPTSLKKGERKWAPPKFLPHKYDVKLQNEDKIISNVPADSLIRTERPPNKEILRYFIRHNALRAGTGENAPWVVEDELVKKYSLPSKFSDFLLDPYKYMTLNPSTKRRNTGSPDRKPSKKPKRDSSSLSSPLNPKLWCHVHLEKSLNGPPLKVKNSKNSKSPEEHLEGVMKIMSPNNNKLHSFHIPKKGPAAKKPGKHSDKPLKAKGRGKGILNGQKSTGNSKSPSKCVKTPKTKMKQMTLLDMAKGTQKMTRTPRSSGGVPRSSGKPHKHLPPAALHLIAYYKENKDKEDKKSALSCVISKTARLLSNEDRARLPEELRALVQKRYELLEHKKRWASMSEEQRKEYLKKKRQELKERLREKAKERREREMLERLEKQKRFEDQELGGRNLPAFRLVDTPEGLPNTLFGDVALVVEFLSCYSGLLLPDAQYPITAVSLMEALSADKGGFLYLNRVLVILLQTLLQDEIAEDYGELGMKLSEIPLTLHSVSELVRLCLRRCDVQEDSEGSETDDNKDSTPFEDNEVQDEFLEKLETSEFFELTSEEKLRILTALCHRILMTYSVQDHMETRQQVSAELWKERLAVLKEENDKKRAEKQKRKEMEARNKENGKEENVLGKVDRKKEIVKIEQQVEVEADDMISAVKSRRLLSMQAKRKREIQERETKVRLEREAEEERMRKHKAAAEKAFQEGIAKAKLVLRRTPIGTDRNHNRYWLFSNEVPGLFIEKGWVHNSIDYRFKHHRKDHSNLPDDDYCPRSKKANLGKNASVNAHHGPALEAVETTVPKQGQNLWFLCDSQKELDELLSCLHPQGIRESQLKERLEKRYQEITHSIYLARKPNLGLKSCDGNQELLNFLRSDLIEVATRLQKGGLGYMEGTSEFEARVISLEKLKDFGECVIALQASVIKKFLQGFMAPKQKKRKLQSEDSTKSEEVDEEKKMVEEAKVASALEKWKTAIREAQTFSRMHVLLGMLDACIKWDMSAENARCKVCRKKGEDDKLILCDECNKAFHLFCLRPALYEVPDGEWQCPACQPPTARRNSRGRNYTEESTSEGSEGDESGEEEEEEEEEEEEEEDYEVAGLRLRPRKTIRGKQSVIPAARPGRPPGKKSHPARRSRPKDDPEVDDLVLQTKRISRRQSLELQKCEDILHKLVKYRFSWPFREPVTRDEAEDYYDVIEHPMDFQTIQNKCSCGNYRSVQEFLTDMKQVFANAELYNCRGSHVLSCMEKTEQCLLALLQKHLPGHPYVRRKRRKFPDRLADDEGDSDSESVGQSRGRRQKK

This test addresses SNF2H (Smarca5) (mouse (endogenous in mESCs)) (UniProt Q91ZW3). In words: co-IP.
Consider “ACF1 (Baz1a) (from UniProt O88379 1-1555)”, for which the binding result is “binds”.

Take BAZ2A/TIP5 (from UniProt Q91YE5 1-1889): the binding result was “binds”. Regarding CECR2 (from UniProt E9Q2Z1 1-1453), the binding result was “binds”. In the case of B1, the binding entry is given as “binds”.
